Measurements published in US20150335549A1, “Oral Care Composition Containing Ionic Liquids” (COLGATE-PALMOLIVE COMPANY, priority 2012, published 2015).
At least one compound was matched to its structure with a doubt left.

System: biofilm of artificial mouth consortium (A. naeslundii, S. oralis, V. parvula, L. casei, F. nucleatum) of bacteria with S. mutans
Assay: In vitro biofilm removal: 3-day old multispecies oral biofilm on saliva-coated 24 well plate, optical density at 610 nm, % reduction from water control
Details: ingredient effect in mouthrinse formulations, 3-day old in-vitro oral biofilm

SMILES: CCCCCCCCCCCCCCCC[n+]1ccccc1 [cetyl pyridinium chloride, reference compound]
- impact on biofilm removal (in words): do not impact biofilm removal %
